Some of the results follow.

The subject of the assay is SOX2 + histone octamer. In words: EMSA with sequencing. As to conditions: 10 mM Tris-Cl pH 7.5, 50 mM NaCl, 1 mM DTT, 0.25 mg/ml BSA, 2 mM MgCl2, 0.025% Nonidet P-40, 5% glycerol; 28 nM nucleosome library; 10 min on ice then 30 min …; high values mean tight binding; double strand, one strand shown.
On to “GATGGACCCTATACGCGGCCTGGGTTCTGAGAGCCTTCAGGACATGTGTCACCGCAGACGACGTTTTAACTTGTAGTGCTAGCTGCTTGTTTCAACTTGCTCCACAAAGGAAAAATAACTATTATGGTCTGGGTGGCACTGGGAAAACATCTTCCATCTTCTAGACCTAGAAGTGAGACTTTTAGCTGAAGAAATGGACTCCAAGTCCAGTGCCAGTCGGATAGTGTTCC”, for which the binding signal (log2 relative supershift) was found to be 0.369. On to “GATGGACCCTATACGCGGCTACCAGAGACTGGACAATTTACAAAAGAAAGTGATTTATTGGACTTAACAGTTCCATGTGGCTGGGGAGGCCTCACAATCACAGTGGAAGGTGAAAGGCAAAAGGCACATCGCACATGGTGGCAGACAGGAGAACAGAGCTTGTGCAGGGAGAATGCCCTTTTACATCATATCTCAAGAGACATATTCACTTGCCAGTCGGATAGTGTTCC”, for which the binding signal (log2 relative supershift) is 1.62.

Turning to “GATGGACCCTATACGCGGCACACATCAGGAAAGATGGCAAGCAGAACGAGAACTAGTGCTACAAAAAGTGATCTCACTGTAACAGCATGGGTGGGCCTGGAAGTCAGTTCTCATGCAACCCCATTAGTTCTAGAAAGTTCTCATATGACTAAGAAAAAGCTGACAGGAATCAAACAGATTTCATCATTAAGCAAACAGAAAACATCAAGTTGCCAGTCGGATAGTGTTCC”, the binding signal (log2 relative supershift) was 0.0172. Turning to “GATGGACCCTATACGCGGCATTATGTACACAGTCTCATGGACAAAGGCATTTGTCAAGTCTCTATGATATTTCTAGAAATACCTTACAGGGCATTATGACTATACAAAGTCAGGGTAGGGCAGCAGAATGCCTGTCTTCAAGACTCTCCATCCCAATGCTCAGGACTTGTTATGCTACTCAGACCAGCATCTTTTGCACAAAGTATTTGTTGCCAGTCGGATAGTGTTCC”, the binding signal (log2 relative supershift) came to 1.74.

These data come from article PMC12370185.
